Assay results: patent US20130039920A1 (SHANGHAI CANCER INSTITUTE, published 2013)
No constants are given. Whether binding was seen depends on the method and setting. Some results given as binding are weak or reduced against the parent protein; the word gives no strength.

Biological target: rN12-S1 recombinant protein (M13 phage) (UniProt P00533)
Experiment: ELISA, rN12-S1 coated at 1.0 mg/L

B1: monoclonal antibody 12H23 (antibody, V domains shown)
VH: DVQLQESGPGLVKPSQSLSLTCTVTAYSVTSDYAWNWIRQFPGNKLEWMGYISYSGTTRYNPSLKSRISITRDTSKNQFFLQLNSMTAEDTATYYCSRQGRGFPYWGQGTLVTVSA
VL: DILMTQSPSSMSVSLGDTVSITCHASQDINSNIGWLQQKPGKSFKGLIYHGTNLEDGVPSRFSGSGSGADYSLTISSLESEDFADYYCVQYAQFPWTFGGGTKLEIKR
notes: also called murine monoclonal antibody 12H23; clone 12H23
binding: binds
